Experimental data: PubChem BioAssay AID504808 (Drosophila RNAi Screening Center, 2011)

Test: 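Fly genes required to hold E2F transcription in check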 (primary screen)
System: Drosophila S2 cells
Reagent: long dsRNA against Drosophila genes
Read-out: 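Firefly luciferase driven by E2F sites, normalised to Renilla luciferase on the same minimal promoter, measured by plate reader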
Reading the numbers: E2F firefly: higher = more E2F reporter activity; Renilla normaliser: higher = more normaliser reporter signal
Rule for the call: 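Called active if the normalised E2F reporter went up by over 50%; the cutoff is arbitrary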
The deposit covers about 21,000 reagents; shown is a random part of those with a known target gene and a result. Of all reagents, 18 (0.084%) are marked active. 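Raw counts without plate normalisation, one of two replicates; the ratio scores behind the calls were not deposited.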 Reagents against one gene are numbered here. Names joined by + are all predicted targets of the reagent. Not stated in the record: the amount of reagent, the time to read-out.

gene knocked down | dsRNA no. | E2F firefly, rep 1 | Renilla normaliser, rep 1 | call
dpr16 | 1 | 1.14e5 | 5710 | inactive
dpr16 | 2 | 46539 | 3448 | inactive
CG7518 | 1 | 66471 | 3263 | inactive
CycB3 | 1 | 99532 | 5209 | inactive
Abi | 1 | 80463 | 4119 | inactive
wls | 1 | 87351 | 3694 | inactive
CG4594 | 1 | 62225 | 3323 | inactive
CG13044 | 1 | 1.78e5 | 8436 | inactive
ttv | 1 | 2696 | 203 | inactive
trh | 1 | 98257 | 4601 | inactive
trh | 2 | 97368 | 3677 | inactive
ohgt | 1 | 1.45e5 | 6715 | inactive
PolZ1 | 1 | 2788 | 177 | inactive
gammaTub37C | 1 | 80093 | 3971 | inactive
hyd | 1 | 1.38e5 | 5632 | inactive
smog | 1 | 1.22e5 | 4935 | inactive
smog | 2 | 1.41e5 | 4877 | inactive
up | 1 | 6916 | 800 | inactive
Pgm2b | 1 | 2944 | 208 | inactive
wap | 1 | 1.36e5 | 5254 | inactive
iav | 1 | 94312 | 5059 | inactive
CG13924 | 1 | 98156 | 4208 | inactive
CG13539 | 1 | 94280 | 4235 | inactive
CG6055 | 1 | 1.53e5 | 5577 | inactive
CG11588 | 1 | 1.30e5 | 4876 | inactive
CG11588 | 2 | 1.39e5 | 7385 | inactive
Sgt1 | 1 | 1.22e5 | 5544 | inactive
CG13455 | 1 | 1.65e5 | 6375 | inactive
CG31661 | 1 | 1.61e5 | 5536 | inactive
Odc1 | 1 | 3504 | 209 | inactive
PIG-L | 1 | 1.42e5 | 7514 | inactive
NSD | 1 | 1.47e5 | 6294 | inactive
hfw | 1 | 1.30e5 | 5578 | inactive
rho-7 | 1 | 1.07e5 | 4394 | inactive
128up | 1 | 3069 | 192 | inactive
eIF5 | 1 | 7823 | 776 | inactive
Treh | 1 | 73242 | 3131 | inactive
Naa15-16 | 1 | 51441 | 3395 | inactive
CG12877 | 1 | 1.23e5 | 5999 | inactive
CG11999 | 1 | 1.14e5 | 6600 | inactive
CG8229 | 1 | 3466 | 122 | inactive
Gr28a | 1 | 1.47e5 | 5395 | inactive
Lerp | 1 | 1.22e5 | 5294 | inactive
Lerp | 2 | 1.09e5 | 5385 | inactive
Lerp | 3 | 1.15e5 | 6093 | inactive
Lerp | 4 | 1.21e5 | 6292 | inactive
Drep2 | 1 | 2735 | 213 | inactive
Chro | 1 | 88855 | 2942 | inactive
RpS21 | 1 | 42770 | 4195 | inactive
CG15535 | 1 | 1.28e5 | 6221 | inactive
glo | 1 | 1.24e5 | 6391 | inactive
CG32679 | 1 | 85361 | 2708 | inactive
CG12909 | 1 | 1.30e5 | 5425 | inactive
ric8a | 1 | 7434 | 740 | inactive
CG14180 (retired record) | 1 | 70152 | 6053 | inactive
CG7300 | 1 | 86565 | 3017 | inactive
CG6833 | 1 | 70074 | 3406 | inactive
CG33278 | 1 | 94397 | 4489 | inactive
PolE1 | 1 | 81527 | 5550 | inactive
skl | 1 | 1.56e5 | 8307 | inactive
SCCRO3 | 1 | 95357 | 4265 | inactive
CheB38a | 1 | 1.01e5 | 4077 | inactive
CG10445 | 1 | 1.40e5 | 6333 | inactive
Reg-2 | 1 | 73746 | 2806 | inactive
CG6454 | 1 | 61818 | 3108 | inactive
CG14153 | 1 | 1.18e5 | 6198 | inactive
SdhB | 1 | 81241 | 3868 | inactive
CG9717 | 1 | 1.30e5 | 6850 | inactive
CG10845 | 1 | 1.05e5 | 6079 | inactive
Nup214 | 1 | 96697 | 3627 | inactive
CG31454 | 1 | 1.49e5 | 5967 | inactive
RpS19a | 1 | 84595 | 15745 | inactive
Ir7b | 1 | 36514 | 3102 | inactive
Smu1 | 1 | 69422 | 3371 | inactive
STUB1 | 1 | 1.65e5 | 5185 | inactive
mthl10 | 1 | 95147 | 4064 | inactive
mthl10 | 2 | 98092 | 3963 | inactive
CG10621 | 1 | 98408 | 4517 | inactive
Tsen54 | 1 | 1.31e5 | 7107 | inactive
CG4338 | 1 | 73116 | 3596 | inactive
Csgalnact | 1 | 1.38e5 | 4824 | inactive
CG14402 | 1 | 96734 | 3940 | inactive
Pstk + CG14210 + Tim9b | 1 | 1.16e5 | 5622 | inactive
Marf1 | 1 | 97884 | 4120 | inactive
Marf1 | 2 | 1.22e5 | 4177 | inactive
CG32281 | 1 | 72545 | 3586 | inactive
CG10822 | 1 | 1.47e5 | 5379 | inactive
pum | 1 | 80725 | 3316 | inactive
pum | 2 | 85040 | 3192 | inactive
pum | 3 | 1.25e5 | 5584 | inactive
pum | 4 | 1.40e5 | 6511 | inactive
Pmvk | 1 | 98397 | 4329 | inactive
CG33127 | 1 | 1.35e5 | 4798 | inactive
TORIP | 1 | 72111 | 3352 | inactive
Grip75 | 1 | 1.50e5 | 5302 | inactive
lcs | 1 | 1.40e5 | 6616 | inactive
smp-30 | 1 | 1.16e5 | 5925 | inactive
ddbt | 1 | 1.21e5 | 3891 | inactive
CG4271 | 1 | 1.70e5 | 5823 | inactive
Cyt-b5 | 1 | 3004 | 172 | inactive
CG15696 | 1 | 1.45e5 | 7534 | inactive
Mdh2 (retired record) | 1 | 1.39e5 | 6671 | inactive
stau | 1 | 63917 | 3457 | inactive
GrlHz | 1 | 80421 | 3541 | inactive
CG7715 | 1 | 1.45e5 | 7581 | inactive
Cpr67Fa1 | 1 | 1.31e5 | 5671 | inactive
CG7394 | 1 | 77091 | 4192 | inactive

A run of entries from the list above:
gene knocked down | dsRNA no. | E2F firefly, rep 1 | Renilla normaliser, rep 1 | call
CG4338 | 1 | 73116 | 3596 | inactive
Csgalnact | 1 | 1.38e5 | 4824 | inactive
CG14402 | 1 | 96734 | 3940 | inactive
Pstk + CG14210 + Tim9b | 1 | 1.16e5 | 5622 | inactive
Marf1 | 1 | 97884 | 4120 | inactive
Marf1 | 2 | 1.22e5 | 4177 | inactive
CG32281 | 1 | 72545 | 3586 | inactive
CG10822 | 1 | 1.47e5 | 5379 | inactive
